According to PubChem BioAssay (NCATS):
This list was built around the results that the source calls inconclusive (neither active nor inactive); the mix of calls is not that of the screen. Potencies of inconclusive entries are doubtful fits and often do not repeat. The source made the active and inactive calls. The call rests on the fitted dose curve; in most records, active means well fitted curve in the direction sought with a large enough effect; inconclusive means small, poorly fitted or top-dose-only effect, or another doubt; inactive means no such curve, though single readings can be large; an effect the other way counts as inactive or inconclusive.

How the values were obtained:
[1] = Quantitative High-Throughput drug screen in 47 multiple myeloma cell lines against the NCATS MIPE library collection: KHM11_PLB cell viability assay (AID 1918962); settings: KHM11 myeloma cell viability, CellTiter-Glo ATP luminescence, 48 h; viability, % of DMSO control: at 45.8 µM (top of the series) unless noted; further: nearly all actives have a fitted effect of over 35% in size
Method in brief: (§1)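 Primary qHTS used for cherry-picking: cells at 500/well, library compounds for 48 h (37C, 5% CO2), luminescent ATP assay.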

[2] = Quantitative High-Throughput drug screen in 47 multiple myeloma cell lines against the NCATS MIPE library collection: JIM3_ECACC cell viability assay (AID 1918963; further: nearly all actives have a fitted effect of over 35% in size)
Method in brief: as §1

[3] = Quantitative High-Throughput drug screen in 47 multiple myeloma cell lines against the NCATS MIPE library collection: JIM1_ECACC cell viability assay (AID 1918964); settings: JIM1 myeloma viability, CellTiter-Glo ATP luminescence, 48 h; viability (% of DMSO): at 45.8 µM (top of the series)
Method in brief: (§2)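 We plated 500 myeloma cells per well, pinned in MIPE 4.0 compounds, and incubated for 48 hours at 37C. ATP was then quantified with CellTiter-Glo, with DMSO and media-only wells defining 100% and 0%.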

[4] = Quantitative High-Throughput drug screen in 47 multiple myeloma cell lines against the NCATS MIPE library collection: INA6_PLB cell viability assay (AID 1918965; further: nearly all actives have a fitted effect of over 55% in size); settings: INA6 myeloma viability, CellTiter-Glo ATP luminescence, 48 h; viability (% of control): at 45.8 µM (top of the series) unless noted
Method in brief: as §2

[5] = Quantitative High-Throughput drug screen in 47 multiple myeloma cell lines against the NCATS MIPE library collection: Karpas25_ECACC cell viability assay (AID 1918968; further: nearly all actives have a fitted effect of over 35% in size)
Method in brief: as §2

[6] = Quantitative High-Throughput drug screen in 47 multiple myeloma cell lines against the NCATS MIPE library collection: KMS12BM_JCRB cell viability assay (AID 1918971); settings: KMS12BM myeloma viability, CellTiter-Glo ATP, 48 h; viability, % of DMSO: at 45.8 µM (top of the series); further: nearly all actives have a fitted effect of over 35% in size
Method in brief: as §2

[7] = Quantitative High-Throughput drug screen in 47 multiple myeloma cell lines against the NCATS MIPE library collection: KMS12PE_JCRB cell viability assay (AID 1918972); settings: KMS12PE myeloma viability, CellTiter-Glo ATP, 48 h; viability: at 45.8 µM (top of the series); further: nearly all actives have a fitted effect of over 30% in size
Method in brief: as §2

[8] = Quantitative High-Throughput drug screen in 47 multiple myeloma cell lines against the NCATS MIPE library collection: H1112_PLB cell viability assay (AID 1918967; further: nearly all actives have a fitted effect of over 30% in size)
Method in brief: as §2

[9] = Quantitative High-Throughput drug screen in 47 multiple myeloma cell lines against the NCATS MIPE library collection: KMS27_JCRB cell viability assay (AID 1918970); settings: KMS27 myeloma cells, CellTiter-Glo ATP viability, 48 h; viability (% of DMSO): at 45.8 µM (top of the series); further: nearly all actives have a fitted effect of over 30% in size
Method in brief: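 Each line is seeded at 500 cells per well and treated with library compounds for 48 hours under 37 °C, 5% CO2. CellTiter-Glo is then added for 5 min at room temperature before median relative luminescence is recorded.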

[10] = Quantitative High-Throughput drug screen in 47 multiple myeloma cell lines against the NCATS MIPE library collection: JJN3_DSMZ cell viability assay (AID 1918966; further: nearly all actives have a fitted effect of over 50% in size)
Method in brief: as §2
Potency means the concentration at half of the fitted maximal effect.

Structure (SMILES) | Potency [1] | Potency [2] | Potency [3] | Potency [4] | Potency [5] | Potency [6] | Potency [7] | Potency [8] | Potency [9] | viability, percent of control [2] | viability [8] | Potency [10]
Nc1nccc(-c2ccc3noc(-c4ccc(Cl)cc4)c3c2)n1 | inconclusive: 2.09 µM [rising, partial curve] | inconclusive: 18.7 µM [cytotoxic, partial curve, poor fit] | inconclusive: 0.372 µM [cytotoxic, full curve, poor fit] | inconclusive: 20.9 µM [cytotoxic, partial curve, poor fit] | inactive | inconclusive: 0.0118 µM [cytotoxic, full curve, poor fit] | inconclusive: 10.5 µM [cytotoxic, single point] |  |  |  |  | 
O=C(O)CCCc1c[nH]c2ccccc12 | inconclusive: 11.8 µM [cytotoxic, single point] | inactive | inconclusive: 0.105 µM [cytotoxic, full curve, poor fit] | inactive |  | inconclusive: 3.72 µM [cytotoxic, partial curve, poor fit] | inactive | inactive | inactive |  |  | 
COc1ccc2ccc(=O)oc2c1CC=C(C)C | inconclusive: 9.35 µM [cytotoxic, full curve, poor fit] | inactive | inconclusive: 16.6 µM [cytotoxic, partial curve] | inconclusive: 7.43 µM [cytotoxic, partial curve, poor fit] | active: 20.9 µM |  |  | inconclusive: 16.6 µM [cytotoxic, partial curve, poor fit] |  |  |  | 
CC(C)(C)[C@H](NC(=O)c1ccc(N)c(Cl)c1)C(=O)N1CCC[C@@H]1C(=O)N[C@H](C#N)CC(=O)O | inconclusive: 0.0042 µM [rising, full curve, poor fit] |  | inconclusive: 0.0118 µM [rising, full curve, poor fit] | inconclusive: 0.372 µM [cytotoxic, full curve, poor fit] |  | inconclusive: 0.132 µM [rising, partial curve, poor fit] | inconclusive: 3.32 µM [cytotoxic, single point] |  |  | inactive: 130% [at 3.51 µM] | inactive: 116% [at 3.51 µM] | 
COc1ccc(-c2ccc3cc(C(=O)O)ccc3c2)cc1C12CC3CC(CC(C3)C1)C2 | inconclusive: 0.0019 µM [rising, full curve, poor fit] | inactive | inconclusive: 8.33 µM [cytotoxic, partial curve, poor fit] | inactive | inactive |  | inactive |  |  |  |  | inconclusive: 9.35 µM [cytotoxic, full curve, poor fit]
COC(=O)[C@H](CCCN=C(N)N)NS(=O)(=O)c1ccc(C)cc1 | inactive | inconclusive: 20.9 µM [cytotoxic, partial curve, poor fit] | inactive | inconclusive: 0.0012 µM [rising, full curve, poor fit] | inconclusive: 4.69 µM [cytotoxic, partial curve, poor fit] | inactive |  |  |  |  |  | inconclusive: 0.0105 µM [cytotoxic, full curve, poor fit]
Cn1cc(-c2ccc3nnc(Sc4ccc5ncccc5c4)n3n2)cn1 | inconclusive: 18.7 µM [cytotoxic, partial curve, poor fit] | inactive | inconclusive: 0.0019 µM [cytotoxic, full curve, poor fit] | inconclusive: 0.332 µM [cytotoxic, full curve, poor fit] | inconclusive: 0.935 µM [cytotoxic, partial curve, poor fit] | inconclusive: 23.5 µM [cytotoxic, single point] |  |  |  |  |  | inconclusive: 0.0023 µM [cytotoxic, full curve, poor fit]
Fc1ccc(C(c2ccc(F)cc2)N2CCN(CC=Cc3ccccc3)CC2)cc1 | inconclusive: 0.296 µM [cytotoxic, full curve, poor fit] | inconclusive: 20.9 µM [cytotoxic, partial curve, poor fit] | inactive | inconclusive: 8.33 µM [cytotoxic, full curve, poor fit] | inactive | inactive |  |  | inconclusive: 2.64 µM [cytotoxic, partial curve, poor fit] |  |  | 
CCCCS(=N)(=O)CCC(N)C(=O)O (stereo not drawn) | inconclusive: 0.0047 µM [rising, full curve] | inactive | inconclusive: 8.33 µM [cytotoxic, partial curve, poor fit] | inconclusive: 5.9 µM [cytotoxic, partial curve, poor fit] |  | inactive | inactive |  |  |  |  | inactive
CCC(C)(C)c1ccc(CC(C)CN2C[C@@H](C)O[C@@H](C)C2)cc1 (stereo partly drawn) | inconclusive: 14.8 µM [cytotoxic, partial curve, poor fit] | inconclusive: 37.2 µM [cytotoxic, single point] | inactive | inconclusive: 16.6 µM [cytotoxic, partial curve] | inconclusive: 37.2 µM [cytotoxic, single point] | inconclusive: 23.5 µM [cytotoxic, single point] | inactive |  | inconclusive: 0.0526 µM [rising, full curve] |  |  | 
COc1ccc(-c2ccc3ncc4c(c3c2)n(-c2ccc(N3CCNCC3)c(C(F)(F)F)c2)c(=O)n4C)cn1 | inconclusive: 0.0053 µM [cytotoxic, full curve] | inconclusive: 0.0209 µM [cytotoxic, full curve] | inconclusive: 0.0166 µM [cytotoxic, full curve] | inconclusive: 0.0026 µM [cytotoxic, full curve] |  | active: 0.332 µM | inconclusive: 0.0042 µM [cytotoxic, full curve] |  | inconclusive: 0.0042 µM [cytotoxic, full curve] |  |  | active: 0.0066 µM
CCc1c2c(nc3ccc(OC(=O)N4CCC(N5CCCCC5)CC4)cc13)-c1cc3c(c(=O)n1C2)COC(=O)[C@]3(O)CC | active: 1.48 µM | inconclusive: 4.69 µM [cytotoxic, partial curve] | inconclusive: 4.18 µM [cytotoxic, partial curve, poor fit] | active: 0.469 µM |  | active: 0.264 µM |  |  | inconclusive: 0.0332 µM [cytotoxic, full curve, poor fit] |  |  | inconclusive: 0.935 µM [cytotoxic, full curve, poor fit]
C=C1c2cccc(O)c2C(O)=C2C(=O)[C@@]3(O)C(O)=C(C(N)=O)C(=O)[C@@H](N(C)C)[C@@H]3[C@@H](O)[C@H]12 | inactive | active: 16.6 µM | inconclusive: 0.235 µM [cytotoxic, full curve, poor fit] | active: 13.2 µM |  | inconclusive: 20.9 µM [cytotoxic, partial curve, poor fit] |  |  | inactive |  |  | inconclusive: 20.9 µM [cytotoxic, partial curve, poor fit]
CN(C)C(=O)COC(=O)Cc1ccc(OC(=O)c2ccc(N=C(N)N)cc2)cc1 | active: 0.662 µM | inconclusive: 2.35 µM [cytotoxic, partial curve, poor fit] | inconclusive: 11.8 µM [cytotoxic, single point] | active: 1.48 µM |  | inconclusive: 0.0033 µM [rising, full curve, poor fit] | inconclusive: 6.62 µM [cytotoxic, partial curve, poor fit] |  | inconclusive: 10.5 µM [cytotoxic, partial curve, poor fit] |  |  | inconclusive: 37.2 µM [cytotoxic, single point]
COc1ccc(-c2cc(=O)c3c(O)cc(O[C@@H]4O[C@H](CO[C@@H]5O[C@@H](C)[C@H](O)[C@@H](O)[C@@H]5O)[C@@H](O)[C@H](O)[C@@H]4O)cc3o2)cc1O | inconclusive: 33.2 µM [cytotoxic, single point] | active: 16.6 µM | inactive | active: 26.4 µM |  | inconclusive: 0.0037 µM [rising, full curve, poor fit] |  |  |  |  |  | inconclusive: 0.0019 µM [rising, full curve, poor fit]
Cn1cc(C[C@@H](N)C(=O)O)c2ccccc21 | inconclusive: 0.0046 µM [rising, full curve, poor fit] | inactive | inconclusive: 0.0363 µM [rising, full curve, poor fit] | inconclusive: 0.0018 µM [rising, full curve, poor fit] | inactive |  | inconclusive: 0.0007 µM |  |  |  |  | 
NS(=O)(=O)c1cc2c(cc1Cl)NC=NS2(=O)=O | inconclusive: 5.9 µM [rising, partial curve, poor fit] | inactive | inactive | inactive |  | inconclusive: 0.0019 µM [rising, full curve, poor fit] | inactive |  | inactive |  |  | inconclusive: 37.2 µM [cytotoxic, single point]
CCn1c(=O)c2c(nc(C=Cc3ccc(OC)c(OC)c3)n2C)n(CC)c1=O | inconclusive: 29.6 µM [cytotoxic, single point] | inconclusive: 18.7 µM [cytotoxic, partial curve, poor fit] | inconclusive: 18.7 µM [cytotoxic, partial curve, poor fit] | inconclusive: 37.2 µM [cytotoxic, single point] |  | inactive |  |  | active: 11.8 µM |  |  | inactive

Some of these compounds in order of heavy-atom count, ascending.
Structure (SMILES) | Potency [1] | Potency [2] | Potency [3] | Potency [4] | Potency [5] | Potency [6] | Potency [7] | Potency [8] | Potency [9] | viability, percent of control [2] | viability [8] | Potency [10]
Cn1cc(C[C@@H](N)C(=O)O)c2ccccc21 | inconclusive: 0.0046 µM [rising, full curve, poor fit] | inactive | inconclusive: 0.0363 µM [rising, full curve, poor fit] | inconclusive: 0.0018 µM [rising, full curve, poor fit] | inactive |  | inconclusive: 0.0007 µM |  |  |  |  | 
COc1ccc2ccc(=O)oc2c1CC=C(C)C | inconclusive: 9.35 µM [cytotoxic, full curve, poor fit] | inactive | inconclusive: 16.6 µM [cytotoxic, partial curve] | inconclusive: 7.43 µM [cytotoxic, partial curve, poor fit] | active: 20.9 µM |  |  | inconclusive: 16.6 µM [cytotoxic, partial curve, poor fit] |  |  |  | 
CN(C)C(=O)COC(=O)Cc1ccc(OC(=O)c2ccc(N=C(N)N)cc2)cc1 | active: 0.662 µM | inconclusive: 2.35 µM [cytotoxic, partial curve, poor fit] | inconclusive: 11.8 µM [cytotoxic, single point] | active: 1.48 µM |  | inconclusive: 0.0033 µM [rising, full curve, poor fit] | inconclusive: 6.62 µM [cytotoxic, partial curve, poor fit] |  | inconclusive: 10.5 µM [cytotoxic, partial curve, poor fit] |  |  | inconclusive: 37.2 µM [cytotoxic, single point]
